Measurements reported in PubChem BioAssay AID1508588 (Peter MacCallum Cancer Centre, 2020)

Assay: 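Which gene losses make BRAF-mutant melanoma cells more responsive to vemurafenib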 (primary screen)
Cells: human WM266.4 melanoma cells (BRAF V600 mutant)
Reagents: siRNA pool against human genes, 40 nM
Timing: 96 h from transfection to read-out
Challenge: vemurafenib 300 nM (about IC25), added 48 h after transfection, for 48 h; comparison arm got DMSO vehicle only
Detection: 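Ratios to non-targeting siRNA for cell gain, counted as DAPI nuclei after minus before drug and averaged over two replicates, and for absorbance-read medium lactate per cell; both binned into fold-change classes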
Direction: cell gain with vemurafenib: higher = more cell gain than with non-targeting siRNA; lactate per cell with vemurafenib: higher = more lactate made per cell
Call rule: 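Enhancement is called by pairing each knock-down's vehicle-arm and drug-arm fold-change classes for viability or glycolysis; which class combinations qualify is not given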
Meaning of the calls: active = enhances vemurafenib effect; inactive = no enhancement seen
Here is a random part of about 18,000 reagents tested. Of all reagents, 790 (4.4%) got an active call. 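Calls rest on a combination of fold-change classes in drug and vehicle arms, not all shown here.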 Reagent sequences are not shown.

Target gene | cell gain with vemurafenib | lactate per cell with vemurafenib | outcome
TPM4 | 0.67 | 0.55 | inactive
OVOL2 | 0.68 | 0.66 | inactive
OR2W1 | 0.26 | 1.08 | inactive
TATDN2 | 0.89 | 0.92 | inactive
ADIG | 0.79 | 1.14 | inactive
PLD3 | 0.57 | 2.12 | inactive
GSTA5 | 0 | 0.3 | inactive
PDE6C | 0.68 | 1.56 | inactive
NKX6-3 | 0.55 | 0.97 | inactive
OR2U1P | 0.58 | 0.28 | inactive
GAL3ST4 | 0.1 | 1.73 | inactive
PCSK6 | 0.49 | 1 | inactive
SCN5A | 0.71 | 1.3 | inactive
MAGEA10 | 0.43 | 0.5 | inactive
SATB1 | 0.95 | 1.56 | inactive
MLIP | 0.21 | 1.62 | inactive
S100A14 | 0.45 | 0.96 | inactive
SYNGR1 | 0.18 | 2.9 | inactive
SLC25A4 | 0.42 | 0.48 | inactive
YARS2 | 0.81 | 1.85 | inactive

5 of these entries, reformatted:
TATDN2 → cell gain with vemurafenib: 0.89; lactate per cell with vemurafenib: 0.92; outcome: inactive
ADIG → cell gain with vemurafenib: 0.79; lactate per cell with vemurafenib: 1.14; outcome: inactive
PLD3 → cell gain with vemurafenib: 0.57; lactate per cell with vemurafenib: 2.12; outcome: inactive
GSTA5 → cell gain with vemurafenib: 0; lactate per cell with vemurafenib: 0.3; outcome: inactive
PDE6C → cell gain with vemurafenib: 0.68; lactate per cell with vemurafenib: 1.56; outcome: inactive

The listing continues:
Target gene | cell gain with vemurafenib | lactate per cell with vemurafenib | outcome
GCA | 0.14 | 1.1 | inactive
IGSF5 | 0.77 | 0.6 | inactive
RHEB | 0.75 | 1.6 | inactive
SMPD3 | 0.6 | 0.82 | inactive
GCN1 | 0.63 | 1.12 | inactive
TFEB | 0.78 | 1.19 | inactive
NAT16 | 0.89 | 1.04 | inactive
KANK1 | 0.69 | 0.95 | inactive
C1QTNF6 | 1.03 | 1.04 | inactive
RHBDD2 | 0.43 | 1.48 | inactive
RIOK1 | 0.39 | 0.57 | inactive
OR51F1 | 0.65 | 0.53 | inactive
CDC14B | 0.87 | 1.47 | inactive
OR5AP2 | 0.57 | 1.02 | inactive
